Data on 2 molecules can be found in PMC6868212.

Protein sequences, listed by entry. Tags and fused reporters are not part of them.
UniProt Q9BPZ7: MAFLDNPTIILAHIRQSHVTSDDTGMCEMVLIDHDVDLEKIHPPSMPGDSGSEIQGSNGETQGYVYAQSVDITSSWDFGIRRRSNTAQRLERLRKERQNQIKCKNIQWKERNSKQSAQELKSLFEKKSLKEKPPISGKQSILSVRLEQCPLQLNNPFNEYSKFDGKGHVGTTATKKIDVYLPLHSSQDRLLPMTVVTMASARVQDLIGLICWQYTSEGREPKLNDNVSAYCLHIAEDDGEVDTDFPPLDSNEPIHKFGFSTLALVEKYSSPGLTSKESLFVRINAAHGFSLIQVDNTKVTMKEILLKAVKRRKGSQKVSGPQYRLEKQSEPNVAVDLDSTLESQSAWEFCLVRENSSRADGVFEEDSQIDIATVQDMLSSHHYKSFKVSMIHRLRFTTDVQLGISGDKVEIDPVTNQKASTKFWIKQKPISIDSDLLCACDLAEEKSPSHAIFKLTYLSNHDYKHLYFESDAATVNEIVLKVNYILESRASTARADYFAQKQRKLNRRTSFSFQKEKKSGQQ

Results are given in words; binding and its absence hold for the method and conditions named. In cells and extracts the contact can be indirect. Some entries that bind do so weakly or less than the wild type.

One test concerns the target Sin1 (UniProt Q9BPZ7). Briefly: co-IP; transfection/Co-immunoprecipitation experiment; who was precipitated is not given.
Test [1] concerns the target Sin1 (endogenous) (human (endogenous in 293T)) (UniProt Q9BPZ7). Kind of test: co-IP; endogenous proteins in 293T cells; MG132 added 12 h prior to cell harvest for immunoprecipitation; western blot. A general note: Immunoblotting shows a protein as a band on a membrane.

B1: SOCS6 (protein, UniProt O14544 1-535)
chain: MKKISLKTLRKSFNLNKSKEETDFMVVQQPSLASDFGKDDSLFGSCYGKDMASCDINGEDEKGGKNRSKSESLMGTLKRRLSAKQKSKGKAGTPSGSSADEDTFSSSSAPIVFKDVRAQRPIRSTSLRSHHYSPAPWPLRPTNSEETCIKMEVRVKALVHSSSPSPALNGVRKDFHDLQSETTCQEQANSLKSSASHNGDLHLHLDEHVPVVIGLMPQDYIQYTVPLDEGMYPLEGSRSYCLDSSSPMEVSAVPPQVGGRAFPEDESQVDQDLVVAPEIFVDQSVNGLLIGTTGVMLQSPRAGHDDVPPLSPLLPPMQNNQIQRNFSGLTGTEAHVAESMRCHLNFDPNSAPGVARVYDSVQSSGPMVVTSLTEELKKLAKQGWYWGPITRWEAEGKLANVPDGSFLVRDSSDDRYLLSLSFRSHGKTLHTRIEHSNGRFSFYEQPDVEGHTSIVDLIEHSIRDSENGAFCYSRSRLPGSATYPVRLTNPVSRFMQVRSLQYLCRFVIRQYTRIDLIQKLPLPNKMKDYLQEKHY
Consider B1, for which the binding entry in the test with Sin1 was “binds”.

B2: SOCS6 (endogenous) (protein, UniProt O14544 1-535)
chain: B1 chain
With B2, the binding result in test [1] is on record as “binds”.
